Results on four molecules are retold here after the odorant receptor screen of Mainland et al. (2015).

The structures appear in SMILES notation. Several values for one entry are separate records, joined by “and”; a condition that tells them apart may be missing. Identical values can stand only once. The list shows a part of the results. Each value is one well over the wells without odorant, computed here; the data are noisy.

One experiment deals with OR5T2 clone 1313. The experiment in a line: odorant receptor activation (CRE luciferase / Renilla) (fold of no-odor wells); higher = more activation. The note with it: 100 µM.
Turning to `CS` [methanethiol], the odorant receptor activation came out at 0.861.
`CCC(C)=O` [2-butanone]: the odorant receptor activation turned out to be 1.12.
As for `CCOc1cc(C=O)ccc1O` [ethyl vanillin], the odorant receptor activation was 0.902 and 1.15.
`CCCCOC(C)=O` [butyl acetate]: the odorant receptor activation stood at 0.912.

Another experiment relates to OR5T2 clone 1428. The experiment is described as above. The settings on record: 100 µM.
Take `CS` [methanethiol]: the odorant receptor activation worked out at 0.937.
Take `CCC(C)=O` [2-butanone]: the odorant receptor activation was determined as 1.02.
For the molecule `CCOc1cc(C=O)ccc1O` [ethyl vanillin], the odorant receptor activation is 0.893 and 1.36.
Molecule `CCCCOC(C)=O` [butyl acetate] registered an odorant receptor activation of 0.223.

Another experiment deals with OR5T3 clone 1343. The experiment is described as above. The settings on record: 100 µM.
On to `CS` [methanethiol], for which the odorant receptor activation was 0.829.
`CCC(C)=O` [2-butanone]: the odorant receptor activation came to 0.839.
Regarding `CCOc1cc(C=O)ccc1O` [ethyl vanillin], the odorant receptor activation is 1.91 and 0.811.
Take `CCCCOC(C)=O` [butyl acetate]: the odorant receptor activation is 0.852.

In the next experiment the test system is OR5V1 clone 1070. The experiment is described as above. The note with it: 100 µM.
With `CS` [methanethiol], the odorant receptor activation was found to be 1.12.
Molecule `CCC(C)=O` [2-butanone] yielded an odorant receptor activation of 2.4.
Same read-out and setting: as for `CCOc1cc(C=O)ccc1O` [ethyl vanillin], the figure is 1.05 and 1.09.
Regarding `CCCCOC(C)=O` [butyl acetate], the odorant receptor activation amounted to 1.26.

For the next experiment, the system named is OR6A2 clone 1489. The description is as above. The settings on record: 100 µM.
In turn, `CS` [methanethiol] gave an odorant receptor activation of 0.937.
Molecule `CCC(C)=O` [2-butanone] returned an odorant receptor activation of 0.92.
For the molecule `CCOc1cc(C=O)ccc1O` [ethyl vanillin], the odorant receptor activation is 1.28 and 2.25 and 1.07.
`CCCCOC(C)=O` [butyl acetate]: the odorant receptor activation is 0.885.

The test system of the next experiment is OR6B1 R143C clone 1181. Described as above. The settings on record: 100 µM.
For the molecule `CS` [methanethiol], the odorant receptor activation was 0.734.
The same measure, in the same setting: under `CCC(C)=O` [2-butanone] stands 0.858.
With `CCOc1cc(C=O)ccc1O` [ethyl vanillin], the odorant receptor activation is 1.65 and 1.45.
On the same count and under the same terms, under `CCCCOC(C)=O` [butyl acetate] stands 0.884.

The next experiment has as its system OR6B2 R122C clone 1444. The description is as above. The note with it: 100 µM.
The molecule `CS` [methanethiol] gave an odorant receptor activation of 0.743.
In turn, `CCC(C)=O` [2-butanone] registered an odorant receptor activation of 1.05.
Regarding `CCOc1cc(C=O)ccc1O` [ethyl vanillin], the odorant receptor activation was 1.06 and 1.1.
Molecule `CCCCOC(C)=O` [butyl acetate] gave an odorant receptor activation of 0.346.

The test system of another experiment is OR6B3 R261W clone 1445. The description is as above. The note with it: 100 µM.
Regarding `CS` [methanethiol], the odorant receptor activation was determined as 0.915.
For `CCC(C)=O` [2-butanone], the odorant receptor activation is 0.675.
Take `CCOc1cc(C=O)ccc1O` [ethyl vanillin]: the odorant receptor activation was 1.31 and 1.43.
`CCCCOC(C)=O` [butyl acetate]: the odorant receptor activation came to 0.356.

In another experiment the test system is OR6C1 V74I/C130Y/L161F/H165D/V246I/R291K clone 1442. The description is as above. The note with it: 100 µM.
`CS` [methanethiol] gave an odorant receptor activation of 1.16.
For `CCC(C)=O` [2-butanone], the odorant receptor activation stood at 1.36.
Take `CCOc1cc(C=O)ccc1O` [ethyl vanillin]: the odorant receptor activation is 1.27 and 1.08.
In the case of `CCCCOC(C)=O` [butyl acetate], the odorant receptor activation stood at 0.141.

For a further experiment, the system named is OR6C2 clone 1413. The description is as above. The settings on record: 100 µM.
The molecule `CS` [methanethiol] displayed an odorant receptor activation of 0.857.
`CCC(C)=O` [2-butanone] came in with an odorant receptor activation of 1.05.
Turning to `CCOc1cc(C=O)ccc1O` [ethyl vanillin], the odorant receptor activation is 0.87 and 1.
In turn, `CCCCOC(C)=O` [butyl acetate] displayed an odorant receptor activation of 0.215.
